Results published in paper PMC7819943, “Rice protein-binding microarrays: a tool to detect cis-acting elements near promoter regions in rice”.
The other results are listed elsewhere or left out.

Molecular target: T1, OsSMF1 (Oryza sativa, UniProt Q6ZLB0 1-436)
T1 sequence: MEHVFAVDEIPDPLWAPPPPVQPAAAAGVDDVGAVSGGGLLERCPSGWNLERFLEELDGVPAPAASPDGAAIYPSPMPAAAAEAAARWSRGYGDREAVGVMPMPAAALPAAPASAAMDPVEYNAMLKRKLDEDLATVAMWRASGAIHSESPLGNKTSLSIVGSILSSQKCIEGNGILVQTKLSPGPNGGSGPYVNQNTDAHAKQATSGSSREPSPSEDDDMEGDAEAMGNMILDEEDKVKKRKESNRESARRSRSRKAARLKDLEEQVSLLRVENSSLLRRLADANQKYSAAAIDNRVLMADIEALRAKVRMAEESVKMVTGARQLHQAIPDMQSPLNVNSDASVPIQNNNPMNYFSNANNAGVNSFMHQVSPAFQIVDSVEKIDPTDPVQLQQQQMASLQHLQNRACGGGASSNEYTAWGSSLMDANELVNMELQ
Experiment: protein-binding microarray (RPBM); PBS, 2% BSA, 51.3 ng/ul salmon testes DNA, 50 uM zinc acetate, 200 nM TF, 25 C, 1 h; high values mean tight binding
Conditions: protein: recombinant; tags: N-terminal polyhistidine and DsRed monomer fusion (pET32a); chain copies: 2; label: CyDye5-dUTP incorporated in the synthesized complementary strand; 3' TTTTT single-stranded linker to array surface; dsDNA, one strand shown
Procedure, shortened: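 Per-feature fluorescence intensity (arbitrary units), read on an Axon 4000B scanner, is the binding signal. Transcription factors carrying an N-terminal polyhistidine tag and DsRed fusion were expressed in E. coli BL21-CodonPlus and purified on Ni–NTA. A custom Agilent array, made double-stranded by primer extension with Cy5-dUTP and blocked with 2% BSA, was incubated with 200 nM protein in PBS, 2% BSA, salmon testes DNA and 50 µM zinc acetate at 25 °C for 1 h and then washed.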

Going from “GAGCCTCCTCCACGCCACGTCAGCCTCTTCGGTGACGACCCGGAGTCACCTAGTGCAG” to “AACTAAGTGGCCGGCGTTAGGTAAGACGAGGACAGGCTCGCGGAGTCACCTAGTGCAG”, the binding signal rises from 17000 fluorescence intensity (a.u.) to 26100 fluorescence intensity (a.u.).

First: ATATATATGTATACGTACGTACGTACGTATGTATGTATGTCGGAGTCACCTAGTGCAG
Second: CCAAACCAATCAAACGCATTCTATCCTAGTTGGCATAACCCGGAGTCACCTAGTGCAG
The binding signal of the first is lower: 3510 fluorescence intensity (a.u.) for the first, 4040 fluorescence intensity (a.u.) for the second.

Going from “AAACCCTCCCCTCTCCGCGAACCCTAACACCATCCGGCGGCGGAGTCACCTAGTGCAG” to “CTAACATGTGGGGTGGGTCACACCTTGACTCAGCGTGGTTCGGAGTCACCTAGTGCAG”, the binding signal rises from 3550 fluorescence intensity (a.u.) to 8940 fluorescence intensity (a.u.).

Going from “CATCCGCCATCTCATCTAATCTCATCCGTCCATCGCTATCCGGAGTCACCTAGTGCAG” to “AGACTGGGTACACATTAAGAATTCCCATAAATCTTCATAGCGGAGTCACCTAGTGCAG”, the binding signal rises from 3680 fluorescence intensity (a.u.) to 37900 fluorescence intensity (a.u.).

Compared with “CTTGTTTGATCAAACCGATGCGACGCAGAGAGAGAGAGGTCGGAGTCACCTAGTGCAG”, “ATCTTTTGGGATGACGTGTTCTCACTTGCATCTTTCCAATCGGAGTCACCTAGTGCAG” is lower in binding signal: 39400 fluorescence intensity (a.u.) for the first, 10400 fluorescence intensity (a.u.) for the second.

Going from “AAATCGTTTCTTTGATGTGGCATGAAGGGACGAGTCGGAGCGGAGTCACCTAGTGCAG” to “GCCACACATTGCATCATCTACTGTAGGACTAAATCAATCTCGGAGTCACCTAGTGCAG”, the binding signal rises from 4280 fluorescence intensity (a.u.) to 4770 fluorescence intensity (a.u.).

Compared with “TGGAAGCTGCTGGGAAGCCCTTCTAAAAGAAGGAAGGATCCGGAGTCACCTAGTGCAG”, “AGTTTTAGTATATACGACATTACGGTGAGTAATAATAAGACGGAGTCACCTAGTGCAG” is higher in binding signal: 24000 fluorescence intensity (a.u.) for the first, 33600 fluorescence intensity (a.u.) for the second.

First: CAGATTTTAACTTGTATGTTTGCGAAAAGATATATCATATCGGAGTCACCTAGTGCAG
Second: GAGAGAGAGAGAGGGATTTCCCCTTGGCTCCGCGTCGATACGGAGTCACCTAGTGCAG
The binding signal of the first is higher: 17300 fluorescence intensity (a.u.) for the first, 3520 fluorescence intensity (a.u.) for the second.

Compared with “TCGGAGTTTGTGAACATAAAGAATAATTGTATTGGAAATACGGAGTCACCTAGTGCAG”, “ATATTATATTAAATTTGTAGTTTTACGATAATATGGTAAACGGAGTCACCTAGTGCAG” is lower in binding signal: 31800 fluorescence intensity (a.u.) for the first, 25400 fluorescence intensity (a.u.) for the second.

Compared with “CGAGTTTGTTTCCTGCTGTCTGTGCGATAATGTTTTCTGCCGGAGTCACCTAGTGCAG”, “CCTGAAGTTCTAGATGTTGATTTTGTCATGATGATCTAATCGGAGTCACCTAGTGCAG” is lower in binding signal: 33300 fluorescence intensity (a.u.) for the first, 4580 fluorescence intensity (a.u.) for the second.

First: GGGATTTCATACTAGATGTCAGCAATTCTTGCAGCATCTCCGGAGTCACCTAGTGCAG
Second: GGAAACACCAATATGAATATGATGTGGGCAACTCAAGGCCCGGAGTCACCTAGTGCAG
The binding signal of the first is higher: 4770 fluorescence intensity (a.u.) for the first, 3840 fluorescence intensity (a.u.) for the second.

Compared with “CACACCCTAACTAGTGTGTGACGCGACTGGCACAGCCTTCCGGAGTCACCTAGTGCAG”, “CATACCAACTCCATCATCTGCTGTCACGTTTGGTCGACGCCGGAGTCACCTAGTGCAG” is lower in binding signal: 4310 fluorescence intensity (a.u.) for the first, 3540 fluorescence intensity (a.u.) for the second.

Going from “GGTTCCTAACTTCCCTCACTCGTTTTCCGCGCTCACACTTCGGAGTCACCTAGTGCAG” to “AAACCGGTTTGATGACTTGATGTCGTCGTTTCATTGGTCACGGAGTCACCTAGTGCAG”, the binding signal rises from 3590 fluorescence intensity (a.u.) to 3660 fluorescence intensity (a.u.).

First: TGAGCTGAGCTCTTCTCTAGCTCATCTTCTTGGTGGATCTCGGAGTCACCTAGTGCAG
Second: GGATGGTTTACACGTCGCTCCTCATTCCGGCTCCTCGCGTCGGAGTCACCTAGTGCAG
The binding signal of the first is lower: 3640 fluorescence intensity (a.u.) for the first, 4160 fluorescence intensity (a.u.) for the second.

Compared with “AAGGCTCGCGAATACGCGGCGTCCACGCATCGGAACTCGGCGGAGTCACCTAGTGCAG”, “GTGTGTGTTGCGTGGTGGGGAGGAAGATCTCGAGCGGTTGCGGAGTCACCTAGTGCAG” is higher in binding signal: 3330 fluorescence intensity (a.u.) for the first, 3950 fluorescence intensity (a.u.) for the second.

First: AGGTTGATCTACTCTTGTCCAGTCATTTCTGCAGTTTGCCCGGAGTCACCTAGTGCAG
Second: GCCGAACACCGACGCGGCGAGCGCAGCCACCACGTCCCCGCGGAGTCACCTAGTGCAG
The binding signal of the first is higher: 5890 fluorescence intensity (a.u.) for the first, 3920 fluorescence intensity (a.u.) for the second.

Compared with “TGGTTGTGACATCACCTGTGTAGCCTATACACCGTTGCTGCGGAGTCACCTAGTGCAG”, “TTAAACTTAATATATTAACGTGTAATCTTTTACGCGTTCACGGAGTCACCTAGTGCAG” is lower in binding signal: 4790 fluorescence intensity (a.u.) for the first, 3800 fluorescence intensity (a.u.) for the second.

First: TCTCCGCCGCCGCCGCCGCCGCCGTCGCCGCCGCCTGCCTCGGAGTCACCTAGTGCAG
Second: GAATATCCGCCAATCACTTTCCCCTCCCACGGCGGCGGCGCGGAGTCACCTAGTGCAG
The binding signal of the first is higher: 3310 fluorescence intensity (a.u.) for the first, 3210 fluorescence intensity (a.u.) for the second.

Going from “ACACATTCCATATCCTTGGACTAATTCACGAGACGAATCTCGGAGTCACCTAGTGCAG” to “AGGCATGAGGATGCAAAAGGATGACCGACTTGGTTGTCAGCGGAGTCACCTAGTGCAG”, the binding signal falls from 40900 fluorescence intensity (a.u.) to 3720 fluorescence intensity (a.u.).

Going from “GGAAAGACCGATTGAGATAAGTCATTCGTGACGGACGCCTCGGAGTCACCTAGTGCAG” to “GCCAGGCGACGCGACGAGTCAGCTCAGCTCGCGCCCGCGGCGGAGTCACCTAGTGCAG”, the binding signal rises from 3420 fluorescence intensity (a.u.) to 3700 fluorescence intensity (a.u.).

First: GCCAATTAACCAATCGGCGTCGTCAGGCCTCTCGCGTGTGCGGAGTCACCTAGTGCAG
Second: CGAAAACGATCCACGCTGTCACACGCTCGAAGACCCGGAACGGAGTCACCTAGTGCAG
The binding signal of the first is higher: 3890 fluorescence intensity (a.u.) for the first, 3690 fluorescence intensity (a.u.) for the second.
